# Measurements: PubChem BioAssay (NCATS)
# The other results are listed elsewhere or left out. Further columns of the screen follow, without active or inactive calls. Compounds called inactive in the main read-out are mostly missing here. Potencies come from curve fits of mixed quality, noted in brackets.
# Assay: qHTS assay for small molecule antagonists of androgen receptor signaling (AID 588516)
# Conditions: AR-UAS-bla HEK293, beta-lactamase ratio, antagonist mode, 16 h; measured here: W460 blue channel fit
# How it was run: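 Antagonist mode: inhibition of R1881-stimulated (10 nM final) bla reporter in GeneBLAzer AR HEK 293 cells, 16 h at 37C, compounds titrated. IC50 and efficacy from Hill-equation fits of 405/460–530 nm FRET ratios.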
row,Structure (SMILES),AC50
1,CCCCC(CC)CN (stereo not drawn),"44.7 nM [falling, full curve, poor fit]"
2,CCCOCC(C)O (stereo not drawn),"50100 nM [falling, partial curve, poor fit]"
3,CCOC(=O)COc1cc(-n2ncc(C(F)(F)F)c(C)c2=O)c(F)cc1Cl,"79.4 nM [rising, full curve, poor fit]"
4,CN(C)Cc1ccccc1,"7.08 nM [falling, full curve, poor fit]"
5,C1COC1,"5.62 nM [falling, full curve, poor fit]"
6,Cc1c(C(=O)O)cccc1[N+](=O)[O-],"4470 nM [falling, partial curve, poor fit]"
7,Cc1cc2nc(N)sc2cc1C,"50100 nM [rising, single point]"
8,CCC(C)(C)C(=O)O,"63.1 nM [falling, full curve, poor fit]"
9,CCOc1ccccc1C(N)=O,"44.7 nM [falling, full curve, poor fit]"
10,O=C1NC(=O)c2cc([N+](=O)[O-])ccc21,"50100 nM [falling, partial curve, poor fit]"
11,Cc1cscn1,"200 nM [falling, partial curve, poor fit]"
12,CCN(CC)c1cccc(O)c1,"22400 nM [rising, single point]"
13,Cc1cccc(C)c1O,"12.6 nM [falling, full curve, poor fit]"

# Nos. 6 through 7, quoted:
row,Structure (SMILES),AC50
6,Cc1c(C(=O)O)cccc1[N+](=O)[O-],"4470 nM [falling, partial curve, poor fit]"
7,Cc1cc2nc(N)sc2cc1C,"50100 nM [rising, single point]"
